Experimental data published in patent US11065203B2, “Liposomal compositions and uses of same” (Technion Research & Development Foundation Limited, priority 2009, dated 2021).

Assay: Proteomics analysis (trypsin digest, LC-MS/MS) of hMSC ghosts and derived CDLs, conditioned or unconditioned by PC3 medium
Set-up: species or system human
Conditions: LC-MS/MS peak area per protein; for Ratio of expression Cond. CDLs/Cond. Ghosts: CDLs derived from conditioned hMSCs versus conditioned ghosts; for Ratio of expression Cond Ghosts/Ghosts: hMSC ghosts conditioned by PC3 medium versus unconditioned ghosts

| Molecule | Ratio of expression Cond. CDLs/Cond. Ghosts [%] | Ratio of expression Cond Ghosts/Ghosts [%] |
| --- | --- | --- |
| O60506 (protein, UniProt O60506 1-623, looked up, full-length) MATEHVNGNGTEEPMDTTSAVIHSENFQTLLDAGLPQKVAEKLDEIYVAGLVAHSDLDERAIEALKEFNEDGALAVLQQFKDSDLSHVQNKSAFLCGVMKTYRQREKQGTKVADSSKGPDEAKIKALLERTGYTLDVTTGQRKYGGPPPDSVYSGQQPSVGTEIFVGKIPRDLFEDELVPLFEKAGPIWDLRLMMDPLTGLNRGYAFVTFCTKEAAQEAVKLYNNHEIRSGKHIGVCISVANNRLFVGSIPKSKTKEQILEEFSKVTEGLTDVILYHQPDDKKKNRGFCFLEYEDHKTAAQARRRLMSGKVKVWGNVGTVEWADPIEDPDPEVMAKVKVLFVRNLANTVTEEILEKAFSQFGKLERVKKLKDYAFIHFDERDGAVKAMEEMNGKDLEGENIEIVFAKPPDQKRKERKAQRQAAKNQMYDDYYYYGPPHMPPPTRGRGRGGRGGYGYPPDYYGYEDYYDYYGYDYHNYRGGYEDPYYGYEDFQVGARGRGGRGARGAAPSRGRGAAPPRGRAGYSQRGGPGSARGVRGARGGAQQQRGRGVRGARGGRGGNVGGKRKADGYNQPDSKRRQTNNQNWGSQPIAQQPLQGGDHSGNYGYKSENQEFYQDTFGQQWK | 5 | 100 |
| O60716 (protein, UniProt O60716 1-968, looked up, full-length) MDDSEVESTASILASVKEQEAQFEKLTRALEEERRHVSAQLERVRVSPQDANPLMANGTLTRRHQNGRFVGDADLERQKFSDLKLNGPQDHSHLLYSTIPRMQEPGQIVETYTEEDPEGAMSVVSVETSDDGTTRRTETTVKKVVKTVTTRTVQPVAMGPDGLPVDASSVSNNYIQTLGRDFRKNGNGGPGPYVGQAGTATLPRNFHYPPDGYSRHYEDGYPGGSDNYGSLSRVTRIEERYRPSMEGYRAPSRQDVYGPQPQVRVGGSSVDLHRFHPEPYGLEDDQRSMGYDDLDYGMMSDYGTARRTGTPSDPRRRLRSYEDMIGEEVPSDQYYWAPLAQHERGSLASLDSLRKGGPPPPNWRQPELPEVIAMLGFRLDAVKSNAAAYLQHLCYRNDKVKTDVRKLKGIPVLVGLLDHPKKEVHLGACGALKNISFGRDQDNKIAIKNCDGVPALVRLLRKARDMDLTEVITGTLWNLSSHDSIKMEIVDHALHALTDEVIIPHSGWEREPNEDCKPRHIEWESVLTNTAGCLRNVSSERSEARRKLRECDGLVDALIFIVQAEIGQKDSDSKLVENCVCLLRNLSYQVHREIPQAERYQEAAPNVANNTGPHAASCFGAKKGKDEWFSRGKKPIEDPANDTVDFPKRTSPARGYELLFQPEVVRIYISLLKESKTPAILEASAGAIQNLCAGRWTYGRYIRSALRQEKALSAIADLLTNEHERVVKAASGALRNLAVDARNKELIGKHAIPNLVKNLPGGQQNSSWNFSEDTVISILNTINEVIAENLEAAKKLRETQGIEKLVLINKSGNRSEKEVRAAALVLQTIWGYKELRKPLEKEGWKKSDFQVNLNNASRSQSSHSYDDSTLPLIDRNQKSDKKPDREEIQMSNMGSNTKSLDNNYSTPNERGDHNRTLDRSGDLGDMEPLKGTTPLMQDEGQESLEEELDVLVLDDEGGQVSYPSMQKI | 4 | 220 |
| Q6P587 (protein, UniProt Q6P587 1-221, looked up, full-length) MAASRPLSRFWEWGKNIVCVGRNYADHVREMRSAVLSEPVLFLKPSTAYAPEGSPILMPAYTRNLHHELELGVVMGKRCRAVPEAAAMDYVGGYALCLDMTARDVQDECKKKGLPWTLAKSFTASCPVSAFVPKEKIPDPHKLKLWLKVNGELRQEGETSSMIFSIPYIISYVSKIITLEEGDIILTGTPKGVGPVKENDEIEAGIHGLVSMTFKVEKPEY | 5 | 100 |
| O75964 (protein, UniProt O75964 1-103, looked up, full-length) MAQFVRNLVEKTPALVNAAVTYSKPRLATFWYYAKVELVPPTPAEIPRAIQSLKKIVNSAQTGSFKQLTVKEAVLNGLVATEVLMWFYVGEIIGKRGIIGYDV | 5 | 100 |
| Q9Y2B0 (protein, UniProt Q9Y2B0 1-182, looked up, full-length) MKGWGWLALLLGALLGTAWARRSQDLHCGACRALVDELEWEIAQVDPKKTIQMGSFRINPDGSQSVVEVPYARSEAHLTELLEEICDRMKEYGEQIDPSTHRKNYVRVVGRNGESSELDLQGIRIDSDISGTLKFACESIVEEYEDELIEFFSREADNVKDKLCSKRTDLCDHALHISHDEL | 4 | 100 |
| Q12931 (protein, UniProt Q12931 1-704, looked up, full-length) MARELRALLLWGRRLRPLLRAPALAAVPGGKPILCPRRTTAQLGPRRNPAWSLQAGRLFSTQTAEDKEEPLHSIISSTESVQGSTSKHEFQAETKKLLDIVARSLYSEKEVFIRELISNASDALEKLRHKLVSDGQALPEMEIHLQTNAEKGTITIQDTGIGMTQEELVSNLGTIARSGSKAFLDALQNQAEASSKIIGQFGVGFYSAFMVADRVEVYSRSAAPGSLGYQWLSDGSGVFEIAEASGVRTGTKIIIHLKSDCKEFSSEARVRDVVTKYSNFVSFPLYLNGRRMNTLQAIWMMDPKDVREWQHEEFYRYVAQAHDKPRYTLHYKTDAPLNIRSIFYVPDMKPSMFDVSRELGSSVALYSRKVLIQTKATDILPKWLRFIRGVVDSEDIPLNLSRELLQESALIRKLRDVLQQRLIKFFIDQSKKDAEKYAKFFEDYGLFMREGIVTATEQEVKEDIAKLLRYESSALPSGQLTSLSEYASRMRAGTRNIYYLCAPNRHLAEHSPYYEAMKKKDTEVLFCFEQFDELTLLHLREFDKKKLISVETDIVVDHYKEEKFEDRSPAAECLSEKETEELMAWMRNVLGSRVTNVKVTLRLDTHPAMVTVLEMGAARHFLRMQQLAKTQEERAQLLQPTLEINPRHALIKKLNQLRASEPGLAQLLVDQIYENAMIAAGLVDDPRAMVGRLNELLVKALERH | 4 | 100 |
| P51572 (protein, UniProt P51572 1-246, looked up, full-length) MSLQWTAVATFLYAEVFVVLLLCIPFISPKRWQKIFKSRLVELLVSYGNTFFVVLIVILVLLVIDAVREIRKYDDVTEKVNLQNNPGAMEHFHMKLFRAQRNLYIAGFSLLLSFLLRRLVTLISQQATLLASNEAFKKQAESASEAAKKYMEENDQLKKGAAVDGGKLDVGNAEVKLEEENRSLKADLQKLKDELASTKQKLEKAENQVLAMRKQSEGLTKEYDRLLEEHAKLQAAVDGPMDKKEE | 4 | 100 |
| Q5JRX3 (protein, UniProt Q5JRX3 1-1037, looked up, full-length) MWRCGGRQGLCVLRRLSGGHAHHRAWRWNSNRACERALQYKLGDKIHGFTVNQVTSVPELFLTAVKLTHDDTGARYLHLAREDTNNLFSVQFRTTPMDSTGVPHILEHTVLCGSQKYPCRDPFFKMLNRSLSTFMNAFTASDYTLYPFSTQNPKDFQNLLSVYLDATFFPCLRELDFWQEGWRLEHENPSDPQTPLVFKGVVFNEMKGAFTDNERIFSQHLQNRLLPDHTYSVVSGGDPLCIPELTWEQLKQFHATHYHPSNARFFTYGNFPLEQHLKQIHEEALSKFQKIEPSTVVPAQTPWDKPREFQITCGPDSFATDPSKQTTISVSFLLPDITDTFEAFTLSLLSSLLTSGPNSPFYKALIESGLGTDFSPDVGYNGYTREAYFSVGLQGIAEKDIETVRSLIDRTIDEVVEKGFEDDRIEALLHKIEIQMKHQSTSFGLMLTSYIASCWNHDGDPVELLKLGNQLAKFRQCLQENPKFLQEKVKQYFKNNQHKLTLSMRPDDKYHEKQAQVEATKLKQKVEALSPGDRQQIYEKGLELRSQQSKPQDASCLPALKVSDIEPTIPVTELDVVLTAGDIPVQYCAQPTNGMVYFRAFSSLNTLPEELRPYVPLFCSVLTKLGCGLLDYREQAQQIELKTGGMSASPHVLPDDSHMDTYEQGVLFSSLCLDRNLPDMMQLWSEIFNNPCFEEEEHFKVLVKMTAQELANGIPDSGHLYASIRAGRTLTPAGDLQETFSGMDQVRLMKRIAEMTDIKPILRKLPRIKKHLLNGDNMRCSVNATPQQMPQTEKAVEDFLRSIGRSKKERRPVRPHTVEKPVPSSSGGDAHVPHGSQVIRKLVMEPTFKPWQMKTHFLMPFPVNYVGECIRTVPYTDPDHASLKILARLMTAKFLHTEIREKGGAYGGGAKLSHNGIFTLYSYRDPNTIETLQSFGKAVDWAKSGKFTQQDIDEAKLSVFSTVDAPVAPSDKGMDHFLYGLSDEMKQAHREQLFAVSHDKLLAVSDRYLGTGKSTHGLAILGPENPKIAKDPSWIIQ | 4 | 100 |
| P36776 (protein, UniProt P36776 1-959, looked up, full-length) MAASTGYVRLWGAARCWVLRRPMLAAAGGRVPTAAGAWLLRGQRTCDASPPWALWGRGPAIGGQWRGFWEASSRGGGAFSGGEDASEGGAEEGAGGAGGSAGAGEGPVITALTPMTIPDVFPHLPLIAITRNPVFPRFIKIIEVKNKKLVELLRRKVRLAQPYVGVFLKRDDSNESDVVESLDEIYHTGTFAQIHEMQDLGDKLRMIVMGHRRVHISRQLEVEPEEPEAENKHKPRRKSKRGKKEAEDELSARHPAELAMEPTPELPAEVLMVEVENVVHEDFQVTEEVKALTAEIVKTIRDIIALNPLYRESVLQMMQAGQRVVDNPIYLSDMGAALTGAESHELQDVLEETNIPKRLYKALSLLKKEFELSKLQQRLGREVEEKIKQTHRKYLLQEQLKIIKKELGLEKDDKDAIEEKFRERLKELVVPKHVMDVVDEELSKLGLLDNHSSEFNVTRNYLDWLTSIPWGKYSNENLDLARAQAVLEEDHYGMEDVKKRILEFIAVSQLRGSTQGKILCFYGPPGVGKTSIARSIARALNREYFRFSVGGMTDVAEIKGHRRTYVGAMPGKIIQCLKKTKTENPLILIDEVDKIGRGYQGDPSSALLELLDPEQNANFLDHYLDVPVDLSKVLFICTANVTDTIPEPLRDRMEMINVSGYVAQEKLAIAERYLVPQARALCGLDESKAKLSSDVLTLLIKQYCRESGVRNLQKQVEKVLRKSAYKIVSGEAESVEVTPENLQDFVGKPVFTVERMYDVTPPGVVMGLAWTAMGGSTLFVETSLRRPQDKDAKGDKDGSLEVTGQLGEVMKESARIAYTFARAFLMQHAPANDYLVTSHIHLHVPEGATPKDGPSAGCTIVTALLSLAMGRPVRQNLAMTGEVSLTGKILPVGGIKEKTIAAKRAGVTCIVLPAENKKDFYDLAAFITEGLEVHFVEHYREIFDIAFPDEQAEALAVER | 4 | 100 |
| O95571 (protein, UniProt O95571 1-254, looked up, full-length) MAEAVLRVARRQLSQRGGSGAPILLRQMFEPVSCTFTYLLGDRESREAVLIDPVLETAPRDAQLIKELGLRLLYAVNTHCHADHITGSGLLRSLLPGCQSVISRLSGAQADLHIEDGDSIRFGRFALETRASPGHTPGCVTFVLNDHSMAFTGDALLIRGCGRTDFQQGCAKTLYHSVHEKIFTLPGDCLIYPAHDYHGFTVSTVEEERTLNPRLTLSCEEFVKIMGNLNLPKPQQIDFAVPANMRCGVQTPTA | 4 | 100 |
